Measurements reported in PubChem BioAssay AID1508597 (Cure First, 2020).
The whole screen tested about 2,100 reagents; shown is an unselected part. 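Calls flag viability under 80% in either arm, not effects specific to rucaparib; the reference for percent is not stated.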 A reagent listed more than once was tested more than once; the source does not tell the runs apart. The record does not give: the 100% reference.

Aim: 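Genes whose silencing sensitises or protects ovarian cancer cells against rucaparib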 (primary screen)
Cell system: human ovarian carcinoma lines grown from tumours: OCI-P5x (papillary serous) and OCI-C5x (clear cell)
Reagents: siRNA pool against human genes, 1.25 pmol siRNA per well
Time to read-out: 72 h or 96 h, depending on the cell culture
Challenge: rucaparib 20 µM (about IC30) or vehicle, present until read-out
Measurement: 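ATP luminescence measured at 72 or 96 h according to the culture, then normalised and expressed as percent viability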
Scale: viability, normalised: higher = more viable cells remaining
Rule for the call: 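a well counts as a hit if its normalised viability is under 80 percent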
Meaning of the calls: active = viability under 80%; inactive = viability 80% or more

| target | rucaparib or vehicle | cell line | technical replicate | viability, normalised (%) | Outcome |
| --- | --- | --- | --- | --- | --- |
| HK3 | Rucaparib | OCI-C5x (clear cell) | 1 | 76.9 | active |
| HK3 | Rucaparib | OCI-C5x (clear cell) | 2 | 81.6 | inactive |
| HK3 | Rucaparib | OCI-C5x (clear cell) | 3 | 56.9 | active |
| HK3 | Rucaparib | OCI-P5x (serous) | 1 | 69.7 | active |
| HK3 | Rucaparib | OCI-P5x (serous) | 2 | 56.1 | active |
| HK3 | Rucaparib | OCI-P5x (serous) | 3 | 55.3 | active |
| HK3 | Vehicle | OCI-C5x (clear cell) | 1 | 61.7 | active |
| HK3 | Vehicle | OCI-C5x (clear cell) | 2 | 56.1 | active |
| HK3 | Vehicle | OCI-C5x (clear cell) | 3 | 52.6 | active |
| HK3 | Vehicle | OCI-P5x (serous) | 1 | 64.2 | active |
| HK3 | Vehicle | OCI-P5x (serous) | 2 | 44.3 | active |
| HK3 | Vehicle | OCI-P5x (serous) | 3 | 60.1 | active |
| BRD3 | Rucaparib | OCI-C5x (clear cell) | 1 | 23.7 | active |
| BRD3 | Rucaparib | OCI-C5x (clear cell) | 1 | 55 | active |
| BRD3 | Rucaparib | OCI-C5x (clear cell) | 2 | 11.8 | active |
| BRD3 | Rucaparib | OCI-C5x (clear cell) | 2 | 39.5 | active |
| BRD3 | Rucaparib | OCI-C5x (clear cell) | 3 | 26.3 | active |
| BRD3 | Rucaparib | OCI-C5x (clear cell) | 3 | 14 | active |
| BRD3 | Rucaparib | OCI-P5x (serous) | 1 | 48.8 | active |
| BRD3 | Rucaparib | OCI-P5x (serous) | 1 | 35.9 | active |
| BRD3 | Rucaparib | OCI-P5x (serous) | 2 | 66.4 | active |
| BRD3 | Rucaparib | OCI-P5x (serous) | 2 | 54.9 | active |
| BRD3 | Rucaparib | OCI-P5x (serous) | 3 | 87.2 | inactive |
| BRD3 | Rucaparib | OCI-P5x (serous) | 3 | 38.3 | active |
| BRD3 | Vehicle | OCI-C5x (clear cell) | 1 | 41.1 | active |
| BRD3 | Vehicle | OCI-C5x (clear cell) | 1 | 8.59 | active |
| BRD3 | Vehicle | OCI-C5x (clear cell) | 2 | 29 | active |
| BRD3 | Vehicle | OCI-C5x (clear cell) | 2 | 36.3 | active |
| BRD3 | Vehicle | OCI-C5x (clear cell) | 3 | 18.3 | active |
| BRD3 | Vehicle | OCI-C5x (clear cell) | 3 | 35 | active |
| BRD3 | Vehicle | OCI-P5x (serous) | 1 | 49.2 | active |
| BRD3 | Vehicle | OCI-P5x (serous) | 1 | 72.4 | active |
| BRD3 | Vehicle | OCI-P5x (serous) | 2 | 51.3 | active |
| BRD3 | Vehicle | OCI-P5x (serous) | 2 | 57.5 | active |
| BRD3 | Vehicle | OCI-P5x (serous) | 3 | 48.5 | active |
| BRD3 | Vehicle | OCI-P5x (serous) | 3 | 66.6 | active |

Continued, starting with the last 4 of the part before.
| target | rucaparib or vehicle | cell line | technical replicate | viability, normalised (%) | Outcome |
| --- | --- | --- | --- | --- | --- |
| BRD3 | Vehicle | OCI-P5x (serous) | 2 | 51.3 | active |
| BRD3 | Vehicle | OCI-P5x (serous) | 2 | 57.5 | active |
| BRD3 | Vehicle | OCI-P5x (serous) | 3 | 48.5 | active |
| BRD3 | Vehicle | OCI-P5x (serous) | 3 | 66.6 | active |
| DMPK | Rucaparib | OCI-C5x (clear cell) | 1 | 72 | active |
| DMPK | Rucaparib | OCI-C5x (clear cell) | 2 | 66.8 | active |
| DMPK | Rucaparib | OCI-C5x (clear cell) | 3 | 65.6 | active |
| DMPK | Rucaparib | OCI-P5x (serous) | 1 | 71.4 | active |
| DMPK | Rucaparib | OCI-P5x (serous) | 2 | 70.1 | active |
| DMPK | Rucaparib | OCI-P5x (serous) | 3 | 69.8 | active |
| DMPK | Vehicle | OCI-C5x (clear cell) | 1 | 58.4 | active |
| DMPK | Vehicle | OCI-C5x (clear cell) | 2 | 50.5 | active |
| DMPK | Vehicle | OCI-C5x (clear cell) | 3 | 72.4 | active |
| DMPK | Vehicle | OCI-P5x (serous) | 1 | 73.1 | active |
| DMPK | Vehicle | OCI-P5x (serous) | 2 | 61 | active |
| DMPK | Vehicle | OCI-P5x (serous) | 3 | 72.1 | active |
| MRGBP | Rucaparib | OCI-C5x (clear cell) | 1 | 45 | active |
| MRGBP | Rucaparib | OCI-C5x (clear cell) | 2 | 42.6 | active |
| MRGBP | Rucaparib | OCI-C5x (clear cell) | 3 | 40.1 | active |
| MRGBP | Rucaparib | OCI-P5x (serous) | 1 | 35.5 | active |
| MRGBP | Rucaparib | OCI-P5x (serous) | 2 | 41.1 | active |
| MRGBP | Rucaparib | OCI-P5x (serous) | 3 | 60.1 | active |
| MRGBP | Vehicle | OCI-C5x (clear cell) | 1 | 26.5 | active |
| MRGBP | Vehicle | OCI-C5x (clear cell) | 2 | 46.8 | active |
| MRGBP | Vehicle | OCI-C5x (clear cell) | 3 | 47.5 | active |
| MRGBP | Vehicle | OCI-P5x (serous) | 1 | 47.3 | active |
| MRGBP | Vehicle | OCI-P5x (serous) | 2 | 47.9 | active |
| MRGBP | Vehicle | OCI-P5x (serous) | 3 | 67.4 | active |
